In patent publication US20230172877A1, “METABOLITES RELEASED FROM APOPTOTIC CELLS ACT AS NOVEL TISSUE MESSENGERS” (University of Virginia Patent Foundation, priority 2020, published 2023):

Tested on: Jurkat T cells
Test: Untargeted metabolomics of supernatants and cell pellets of apoptotic (UV) versus live Jurkat T cells
Assay type: cell-based, human
[1] = Jurkat T cells, UV, cell pellet decrease, apoptotic versus live
[2] = Jurkat T cells, UV, supernatant enrichment, apoptotic versus live
[3] = Jurkat UV metabolite release, apoptotic versus live supernatant, 4 hours after apoptosis induction

Compound | Fold Change (FAp/FL)-Cell [1] | Fold Change (FAp/FL)-Supe [2] | Fold Change (FAp/FL) [3] | also measured
CC(=O)N[C@@H](CCC(N)=O)C(=O)O [N-acetylglutamine] | 0.43 | 3.45 | 3.45 | 
CC(=O)N[C@@H](Cc1c[nH]cn1)C(=O)O [N-acetylhistidine] | 0.49 | 2.58 | 2.58 | 
CC[C@H](C)[C@H](NC(C)=O)C(=O)O [N-acetylisoleucine] |  |  | 2.76 | 
CC(=O)N[C@@H](CC(C)C)C(=O)O [N-acetylleucine] |  |  | 2.48 | 
CSCC[C@H](NC(C)=O)C(=O)O [N-acetylmethionine] | 0.50 | 1.70 | 1.70 | 
CC(=O)N[C@H]1[C@H]([C@@H](O)[C@@H](O)CO)O[C@@](O)(C(=O)O)C[C@@H]1O [N-acetylneuraminate] | 0.74 | 4.18 | 4.18 | 
CC(=O)N[C@@H](Cc1ccccc1)C(=O)O [N-acetylphenylalanine] |  |  | 2.76 | 
CC(=O)N1CCC[C@H]1C(=O)O [N-acetylproline] |  |  | 2.15 | 
CC(=O)N[C@@H](CO)C(=O)O [N-acetylserine] | 0.11 | 3.59 | 3.59 | 
CC(=O)N[C@H](C(=O)O)[C@@H](C)O [N-acetylthreonine] | 0.16 | 4.17 | 4.17 | 
NC(=O)N[C@@H](CC(=O)O)C(=O)O [N-carbamoylaspartate] | 0.01 | 1.31 | 1.31 | 
O=CN[C@@H](Cc1ccccc1)C(=O)O [N-formylphenylalanine] |  |  | 1.87 | 
CC(=O)N[C@H]1[C@@H](OP(=O)(O)OP(=O)(O)OC[C@H]2O[C@@H](n3ccc(=O)[nH]c3=O)[C@H](O)[C@@H]2O)O[C@H](CO)[C@H](O)[C@@H]1O [UDP-N-acetylgalactosamine] | 0.60 | 16.96 | 16.96 | 
CC(=O)N[C@H]1[C@@H](OP(=O)(O)OP(=O)(O)OC[C@H]2O[C@@H](n3ccc(=O)[nH]c3=O)[C@H](O)[C@@H]2O)O[C@H](CO)[C@@H](O)[C@@H]1O [UDP-N-acetylglucosamine] | 0.59 | 15.14 | 15.14 | 
Nc1ncnc2nc[nH]c12 [adenine] |  |  | 4.63 | 
Nc1ncnc2c1ncn2[C@@H]1O[C@H](COP(=O)(O)O)[C@@H](O)[C@H]1O [adenosine 5′-monophosphate (AMP), adenosine 5′-monophosphate] | 0.13 | 14.95 | 14.95 | 
C[C@H](N)C(=O)O [alanine] |  |  |  | Release of metabolite into apoptotic cell supernatants (in words) (Jurkat T cell supernatants, live and apoptotic conditions): not released
N=C(N)NCCC[C@H](N)C(=O)O [arginine] |  |  | 1.04 | 
C[N+](C)(C)CC(O)CC(=O)[O-] (stereo not drawn) [carnitine] | 0.15 | 2.19 | 2.19 | 
CN(CC(=O)O)C(=N)N [creatine] | 0.21 | 5.26 | 5.26 | 
N[C@@H](CCSC[C@H](N)C(=O)O)C(=O)O [cystathionine] | 0.08 | 2.52 | 2.52 | 
N[C@@H](CSS(=O)(=O)O)C(=O)O [cysteine s-sulfate] |  |  | 2.12 | 
N[C@@H](CS(=O)O)C(=O)O [cysteine sulfinic acid] | 0.48 | 2.02 | 2.02 | 
N[C@@H](CS)C(=O)O [cysteine] | 0.60 | 1.78 | 1.78 | 

Compound | Fold Change (FAp/FL)-Cell [1] | Fold Change (FAp/FL)-Supe [2] | Fold Change (FAp/FL) [3] | also measured
C[N+](C)(C)CCOP(=O)(O)OP(=O)([O-])OC[C@H]1O[C@@H](n2ccc(N)nc2=O)[C@H](O)[C@@H]1O [cytidine 5′-diphosphocholine] |  |  | 11.87 | 
Nc1ccn([C@@H]2O[C@H](COP(=O)(O)O)[C@@H](O)[C@H]2O)c(=O)n1 [cytidine 5′-monophosphate (5′-CMP), cytidine 5′-monophosphate] | 0.34 | 16.36 | 16.36 | 
Nc1ccn([C@@H]2O[C@H](CO)[C@@H](O)[C@H]2O)c(=O)n1 [cytidine] | 0.73 | 99.36 | 99.36 | 
C[N+](C)(C)CCCC(=O)[O-] [deoxycarnitine] | 0.10 | 3.25 | 3.25 | 
CN(C)CC(=O)O [dimethylglycine] | 0.46 | 2.29 | 2.29 | 
CC/C=C\C/C=C\C/C=C\C/C=C\C/C=C\C/C=C\CCC(=O)O [docosahexaenoate (DHA; 22:6n3)] |  |  | 1.97 | 
O=C(O)[C@H](O)[C@H](O)CO [erythronate*, erythronate] |  |  |  | Fold Change (FAp/FL): 1.13; Fold Change (FAp/FL)-Cell: 0.08; Fold Change (FAp/FL)-Supe: 1.13
O=C(CO)[C@@H](O)[C@H](O)[C@H](O)CO [fructose] |  |  | 1.25 | 
O=C(O)/C=C/C(=O)O [fumarate] | 0.34 | 5.39 | 5.39 | 
NC(=O)CC[C@H](NC(=O)CC[C@H](N)C(=O)O)C(=O)O [gamma-glutamylglutamine] | 0.45 | 1.51 | 1.51 | 
CSCC[C@H](NC(=O)CC[C@H](N)C(=O)O)C(=O)O [gamma-glutamylmethionine] | 0.45 | 2.02 | 2.02 | 
C[C@@H](O)[C@H](NC(=O)CC[C@H](N)C(=O)O)C(=O)O [gamma-glutamylthreonine*, gamma-glutamylthreonine] | 0.16 | 4.15 | 4.15 | 
N[C@@H](CCC(=O)O)C(=O)O [glutamate] | 0.23 | 1.52 | 1.52 | 
O=P(O)(O)OCC(O)CO (stereo not drawn) [glycerol 3-phosphate] | 0.66 | 14.17 | 14.17 | 
NCCOP(=O)(O)OCC(O)CO (stereo not drawn) [glycerophosphoethanolamine] | 0.07 | 37.37 | 37.37 | 
O=P(O)(OCC(O)CO)OCC(O)CO (stereo not drawn) [glycerophosphoglycerol] | 0.27 | 5.32 | 5.32 | 
O=P(O)(OC[C@H](O)CO)OC1[C@H](O)[C@H](O)C(O)[C@H](O)[C@H]1O (stereo partly drawn) [glycerophosphoinositol*, glycerophosphoinositol] |  |  | 16.30 | 
C[N+](C)(C)CCOP(=O)([O-])OC[C@H](O)CO [glycerophosphorylcholine (GPC), glycerophosphorylcholine] | 0.10 | 17.82 | 17.82 | 
CC(C)[C@H](NC(=O)CN)C(=O)O [glycylvaline] (H-Gly-Val-OH) |  |  | 9.36 | 
Nc1nc2nc[nH]c2c(=O)[nH]1 [guanine] |  |  | 203.22 | 
Nc1nc2c(ncn2[C@@H]2O[C@H](COP(=O)(O)O)[C@@H](O)[C@H]2O)c(=O)[nH]1 [guanosine 5′-monophosphate (5′-GMP), guanosine 5′-monophosphate] | 0.74 | 8.66 | 8.66 | 
Nc1nc2c(ncn2[C@@H]2O[C@H](CO)[C@@H](O)[C@H]2O)c(=O)[nH]1 [guanosine] | 0.54 | 11.79 | 11.79 | 
O=C(O)[C@H](O)[C@H](O)[C@@H](O)[C@H](O)CO [gulonic acid*, gulonic acid] | 0.11 | 2.71 | 2.71 | 
NCCS(=O)O [hypotaurine] | 0.06 | 35.43 | 35.43 | 

Read-outs that look alike come from different tables or passages of the source. Peptide text beside a SMILES is read from it.
